Data as given in patent publication US9694050B2, “THY1 (CD90) as a novel therapy to control adipose tissue accumulation” (University of Rochester, priority 2012, dated 2017).
At least one structure is not confirmed: it was looked up by name or label, or the drawing left a doubt.

System: Thy1
Assay: Thy1 expression in hMSCs treated with obesogens (qPCR, flow cytometry)
Format: cell-based, human
Settings: 10 uM, 72 hrs, vs vehicle (DMSO)
Experimental: In particular, hMSCs were induced to adipocytes with a rosiglitazone cocktail (adipogenic) or cocktail containing the putative obesogens BPA (1 μM), TBBPA (5 μM), or TBT (100 nM). […] The obesogen doses selected are based on literature and represent concentrations proposed to be found in human tissues. Roos et al., “Circulating Levels of Persistent Organic Pollutants in Relation to Visceral and Subcutaneous Adipose Tissue by Abdominal MRI,” Obesity (Silver Spring) (2012) and Antizar-Ladislao, B, “Environmental Levels, Toxicity and Human Exposure to Tributyltin (TBT)-Contaminated Marine Environment. A Review,” Environ Int 34(2):292-308 (2008), each of which is hereby incorporated by reference in its entirety. As noted above, the cells were cultured in adipogenic medium containing rosiglitazone, a PPARγ ligand that promotes adipogenesis and obesity, and the noted putative obesogens.
qPCR analysis of the mRNA levels of Thy1 and the adipogenic marker FABP4 was conducted. […] The same samples as in FIG. 4A were used to measure Thy1 mRNA levels by qPCR. […] Thy1 and FABP4 levels were normalized to TBP mRNA levels (control gene).
hMSCs were also treated with vehicle (DMSO), 20 uM TBBPA, or 10 uM rosiglitazone for 72 hrs, harvested and stained with a fluorescent anti-Thy1 antibody for analysis of Thy1 by flow cytometry.

## CN(CCOc1ccc(CC2SC(=O)NC2=O)cc1)c1ccccn1 (stereo not shown) [rosiglitazone]
  surface expression of Thy1, flow cytometry: decreased
